{"source": "PubChem BioAssay AID1259308 | NCATS – 2017", "purpose": "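Knock-downs that increase output of a recombinant reporter protein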 (primary screen)", "cell system": "human HEK293 embryonic kidney cells stably expressing firefly luciferase (HEK-CMV-Luc2-Hygro)", "reagents": "single siRNA against human genes, 0.8 pmol siRNA per well", "timing": "72 h", "detection": "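Reporter luminescence and viable-cell signal on separate replicate plates, given as percent of non-targeting control and median/MAD z-scores, plus per-cell luciferase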", "direction": "total luciferase, z-score and total luciferase, % of control: higher = more reporter protein produced", "rule for the call": "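Active when the median/MAD z-score for overall luciferase is greater than 3; a gene was taken forward for validation with new siRNAs if at least two of its three siRNAs passed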", "calls": "active = raised luciferase; inactive = no rise", "note": "In all, the deposit lists about 59,000 reagents; below is an unselected part. About 1,510 of all reagents (2.6%) count as active. 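Calls use total luciferase alone and ignore viability, so some active siRNAs may act by altering cell number.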 Unmarked entries are inactive. Reagents against one gene are numbered here. Not all columns of the deposit are shown."}
{"Target gene": "TNFRSF10C (GeneID 8794)", "siRNA no.": 1, "total luciferase, z-score": -1.22, "total luciferase, % of control": 57.7}
{"Target gene": "TNFRSF10C (GeneID 8794)", "siRNA no.": 2, "total luciferase, z-score": -0.182, "total luciferase, % of control": 78.3}
{"Target gene": "TNFRSF10C (GeneID 8794)", "siRNA no.": 3, "total luciferase, z-score": -1.12, "total luciferase, % of control": 59.6}
{"Target gene": "ZDHHC1 (GeneID 29800)", "siRNA no.": 1, "total luciferase, z-score": -1.27, "total luciferase, % of control": 56.5}
{"Target gene": "ZDHHC1 (GeneID 29800)", "siRNA no.": 2, "total luciferase, z-score": -0.289, "total luciferase, % of control": 76.1}
{"Target gene": "ZDHHC1 (GeneID 29800)", "siRNA no.": 3, "total luciferase, z-score": 2.31, "total luciferase, % of control": 128}
{"Target gene": "ERF (GeneID 2077)", "siRNA no.": 1, "total luciferase, z-score": -0.581, "total luciferase, % of control": 70.3}
{"Target gene": "ERF (GeneID 2077)", "siRNA no.": 2, "total luciferase, z-score": -1.17, "total luciferase, % of control": 58.5}
{"Target gene": "ERF (GeneID 2077)", "siRNA no.": 3, "total luciferase, z-score": 0.773, "total luciferase, % of control": 97.3}
{"Target gene": "NBPF9 (GeneID 400818)", "siRNA no.": 1, "total luciferase, z-score": -0.0328, "total luciferase, % of control": 81.2}
{"Target gene": "NBPF9 (GeneID 400818)", "siRNA no.": 2, "total luciferase, z-score": -0.193, "total luciferase, % of control": 78.1}
{"Target gene": "NBPF9 (GeneID 400818)", "siRNA no.": 3, "total luciferase, z-score": 2.75, "total luciferase, % of control": 137}

Laid out differently: 2 of the entries above
TNFRSF10C (GeneID 8794) #1 | total luciferase, z-score = -1.22; total luciferase, % of control = 57.7
TNFRSF10C (GeneID 8794) #2 | total luciferase, z-score = -0.182; total luciferase, % of control = 78.3
